{"source": "patent EP2060268A1", "about": "“Pharmaceutical compositions for pulmonary or nasal delivery of peptides” (NOVO NORDISK A/S, priority 2007, dated 2009)", "origin": "cited, not measured here", "settings": "adjunct with insulin, in contrast to treatment with insulin alone; cited from earlier work", "note": "At least one peptide structure holds a part that was inferred or is arguable (an end, a ring closure or a residue).", "data": [{"smiles": "CC[C@H](C)[C@H](NC(=O)[C@@H]1CCCN1C(=O)CNC(=O)[C@H](Cc1ccccc1)NC(=O)[C@H](CC(N)=O)NC(=O)[C@H](CC(N)=O)NC(=O)[C@H](CO)NC(=O)[C@H](CO)NC(=O)[C@H](Cc1c[nH]cn1)NC(=O)[C@@H](NC(=O)[C@H](CC(C)C)NC(=O)[C@H](Cc1ccccc1)NC(=O)[C@H](CC(N)=O)NC(=O)[C@H](C)NC(=O)[C@H](CC(C)C)NC(=O)[C@H](CCCNC(=N)N)NC(=O)[C@H](CCC(N)=O)NC(=O)[C@@H](NC(=O)[C@H](C)NC(=O)[C@@H]1CSSC[C@H](NC(=O)[C@@H](N)CCCCN)C(=O)N[C@@H](CC(N)=O)C(=O)N[C@@H]([C@@H](C)O)C(=O)N[C@@H](C)C(=O)N[C@@H]([C@@H](C)O)C(=O)N1)[C@@H](C)O)C(C)C)C(=O)N[C@@H](CC(C)C)C(=O)N1CCC[C@H]1C(=O)N1CCC[C@H]1C(=O)N[C@H](C(=O)N[C@@H](CC(N)=O)C(=O)N[C@H](C(=O)NCC(=O)N[C@@H](CO)C(=O)N[C@@H](CC(N)=O)C(=O)N[C@H](C(=O)N[C@@H](Cc1ccc(O)cc1)C(N)=O)[C@@H](C)O)C(C)C)[C@@H](C)O", "note": "[Symlin, ^25,28,29Pro-h-amylin]", "values": [{"measurement": "improved HbA1c", "value": "0.3-0.6"}]}]}
